Data: article PMC10229537
These are yes or no findings as the source states them, for the method shown. Some entries that bind do so weakly or less than the wild type.

Sequences of proteins named here, by UniProt entry; tags and fusion partners are left off.
UniProt Q5D869: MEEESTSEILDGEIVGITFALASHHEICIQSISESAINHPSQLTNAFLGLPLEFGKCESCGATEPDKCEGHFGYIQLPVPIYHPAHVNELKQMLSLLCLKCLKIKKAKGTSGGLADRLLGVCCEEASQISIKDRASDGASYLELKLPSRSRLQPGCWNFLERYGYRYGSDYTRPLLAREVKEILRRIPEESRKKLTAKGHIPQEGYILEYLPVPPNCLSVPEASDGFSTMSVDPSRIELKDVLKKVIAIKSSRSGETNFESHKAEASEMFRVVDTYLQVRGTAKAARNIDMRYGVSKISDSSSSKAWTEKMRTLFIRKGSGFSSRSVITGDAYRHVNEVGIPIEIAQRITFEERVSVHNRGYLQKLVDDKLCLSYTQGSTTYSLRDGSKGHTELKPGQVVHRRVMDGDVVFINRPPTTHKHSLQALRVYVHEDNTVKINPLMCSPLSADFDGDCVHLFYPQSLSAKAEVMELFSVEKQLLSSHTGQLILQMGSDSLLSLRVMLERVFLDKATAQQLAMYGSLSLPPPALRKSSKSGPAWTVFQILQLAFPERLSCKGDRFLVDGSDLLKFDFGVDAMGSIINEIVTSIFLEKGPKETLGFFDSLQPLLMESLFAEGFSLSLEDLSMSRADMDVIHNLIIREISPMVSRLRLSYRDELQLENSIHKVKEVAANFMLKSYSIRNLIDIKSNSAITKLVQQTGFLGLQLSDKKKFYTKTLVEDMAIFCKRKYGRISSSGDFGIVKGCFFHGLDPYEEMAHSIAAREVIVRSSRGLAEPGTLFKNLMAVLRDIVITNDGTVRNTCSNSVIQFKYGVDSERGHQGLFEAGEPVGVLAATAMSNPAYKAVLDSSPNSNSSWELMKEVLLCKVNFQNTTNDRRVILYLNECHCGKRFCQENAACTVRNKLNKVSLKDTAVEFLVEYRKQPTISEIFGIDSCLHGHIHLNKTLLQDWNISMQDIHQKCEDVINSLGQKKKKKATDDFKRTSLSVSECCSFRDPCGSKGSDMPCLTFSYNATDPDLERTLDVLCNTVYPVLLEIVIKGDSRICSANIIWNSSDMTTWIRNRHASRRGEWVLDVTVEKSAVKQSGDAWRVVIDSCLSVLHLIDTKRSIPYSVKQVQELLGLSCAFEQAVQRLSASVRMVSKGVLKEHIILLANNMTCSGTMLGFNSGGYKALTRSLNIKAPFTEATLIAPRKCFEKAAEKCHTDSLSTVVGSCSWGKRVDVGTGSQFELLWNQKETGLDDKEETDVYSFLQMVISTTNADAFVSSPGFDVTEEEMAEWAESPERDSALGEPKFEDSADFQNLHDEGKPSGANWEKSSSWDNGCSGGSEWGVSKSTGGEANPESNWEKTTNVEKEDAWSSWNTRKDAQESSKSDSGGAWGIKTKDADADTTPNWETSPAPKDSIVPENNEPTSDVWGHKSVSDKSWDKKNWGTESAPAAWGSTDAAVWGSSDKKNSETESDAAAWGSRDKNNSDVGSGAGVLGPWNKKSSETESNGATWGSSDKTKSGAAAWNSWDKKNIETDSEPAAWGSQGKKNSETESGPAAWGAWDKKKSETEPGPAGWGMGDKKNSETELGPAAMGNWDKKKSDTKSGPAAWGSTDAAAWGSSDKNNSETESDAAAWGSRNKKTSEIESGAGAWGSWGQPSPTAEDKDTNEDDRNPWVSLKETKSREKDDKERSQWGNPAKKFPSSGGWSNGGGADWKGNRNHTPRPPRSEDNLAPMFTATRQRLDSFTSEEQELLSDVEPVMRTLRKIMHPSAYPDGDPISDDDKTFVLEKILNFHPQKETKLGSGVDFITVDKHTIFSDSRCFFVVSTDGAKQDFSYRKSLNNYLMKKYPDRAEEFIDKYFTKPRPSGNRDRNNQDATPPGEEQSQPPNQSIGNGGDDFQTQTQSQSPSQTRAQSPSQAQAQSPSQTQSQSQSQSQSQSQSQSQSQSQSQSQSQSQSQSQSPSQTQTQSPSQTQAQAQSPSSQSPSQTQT
UniProt Q8LFJ6: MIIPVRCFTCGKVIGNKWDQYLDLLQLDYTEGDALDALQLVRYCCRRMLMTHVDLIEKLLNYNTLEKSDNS
UniProt Q9FLM8: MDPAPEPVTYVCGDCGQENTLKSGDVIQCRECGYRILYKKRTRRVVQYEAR

Biological target: NRPE1, the largest subunit of Pol V, 3xFLAG-10xHis-tagged (Arabidopsis thaliana) (UniProt Q5D869)
Experiment: co-purification with 3xFLAG-10xHis-NRPE1, subunits seen in the cryo-EM map; Pol V purified by anti-FLAG resin, Capto Q and Superose 6 from T87 cells; the subunits present are told from the cryo-EM maps

Substance	binding
NRP(A/B/C/D/E)10 (from UniProt Q8LFJ6 1-71)	binds
NRP(A/B/C/D/E)12 (from UniProt Q9FLM8 1-51)	binds
